## Library screen at single concentrations

Sequences of proteins named here, by UniProt entry; tags and fusion partners are left off.
UniProt P9WPC5, whole entry: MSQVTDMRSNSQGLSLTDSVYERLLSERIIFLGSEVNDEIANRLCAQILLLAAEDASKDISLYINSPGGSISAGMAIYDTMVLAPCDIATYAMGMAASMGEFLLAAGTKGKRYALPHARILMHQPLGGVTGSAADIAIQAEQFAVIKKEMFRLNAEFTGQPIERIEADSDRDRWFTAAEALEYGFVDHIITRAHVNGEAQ
UniProt P9WPC3, whole entry partner: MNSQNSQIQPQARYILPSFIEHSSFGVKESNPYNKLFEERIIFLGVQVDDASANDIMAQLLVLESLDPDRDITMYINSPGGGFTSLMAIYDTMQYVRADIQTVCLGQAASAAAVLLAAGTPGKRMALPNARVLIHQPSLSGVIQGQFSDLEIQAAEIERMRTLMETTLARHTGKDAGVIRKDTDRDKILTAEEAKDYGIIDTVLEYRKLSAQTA

From ChEMBL document CHEMBL3988442, “University of Dundee, Small-Polar-MMV Screening Library” (2021).

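ClpP1P2, Mycobacterium tuberculosis (UniProt P9WPC5 and UniProt P9WPC3). Protease assay of ClpP1P2, read by the AMC dye that it sets free. Concentration: 50 µM. Higher reads as stronger inhibition, judged from the few compounds that gave an IC50. Most other retested compounds had strongly negative values. Of about 69,000 compounds tested this way, about 10 (0.015%) reached 50% or more in at least one test.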

The filed quantity is “Percent Effect” (%). The record does not define 0% and 100%; most values in the screen are far below 50% and negative numbers occur (in some assays of this library far below -100). Compounds were drawn at random from those tested, without regard to their results.

{"smiles": "CCOCC1CN(Cc2ccoc2)Cc2nn(C)cc21", "stereo": "configuration not stated", "percent effect": -5.356}
{"smiles": "CCn1cc(NC(=O)C2CCN(Cc3nc(C)c(C)o3)CC2)cn1", "percent effect": -4.27}
{"smiles": "Cc1ncsc1C(=O)N1CCCC(c2cc(C(F)F)n3ncnc3n2)C1", "stereo": "configuration not stated", "percent effect": -6.029}
{"smiles": "CN(CC1(CO)CCOCC1)[C@@H]1c2ccccc2C2(CCNCC2)[C@H]1O", "percent effect": -15.54}
{"smiles": "COc1nccc(N2CC[C@@H](N3CCN(C)CC3)[C@H](O)C2)c1C#N", "percent effect": 8.434}
{"smiles": "Cc1cccc(N2CC[C@@H]3CN(Cc4csc(C)n4)CCO[C@@H]3C2)n1", "percent effect": -0.8518}
{"smiles": "CCOC(C(=O)N1CCn2c(CC)nnc2C1)c1ccccc1", "stereo": "configuration not stated", "percent effect": -11.95}
{"smiles": "COc1ccc(Br)cc1SCCS(C)(=O)=O", "percent effect": 5.519}
{"smiles": "CN(C)C(=O)c1cn[nH]c1C1(C)CCN(c2ncccn2)CC1", "percent effect": -6.017}
{"smiles": "CNc1nc(C2CCCN(C(=O)CNC(C)=O)C2)nc2c1CN(C)CC2", "stereo": "configuration not stated", "percent effect": -1.839}
{"smiles": "CCSc1ncc(-c2cc(C3CCC3)nc(N)c2C#N)cn1", "percent effect": -6.792}
{"smiles": "CCS(=O)(=O)N1Cc2[nH]nc(COCc3cccnc3)c2C1", "percent effect": 0.3994}
{"smiles": "CCn1c(N)nc2cc(C(=O)N3CCN(CC(F)(F)F)CC3)cnc21", "percent effect": -10.95}
{"smiles": "O=C(C1CCCOC1)N1CCCCc2ccccc21", "stereo": "configuration not stated", "percent effect": 1.104}
{"smiles": "CCCc1nccn1-c1ccncc1", "percent effect": 3.532}
{"smiles": "O=C(c1cc(Cl)ccc1OC1CCN(C2CCCC2)CC1)N1CCCO1", "percent effect": -16.91}
{"smiles": "COC(=O)NCC(=O)N1CCCCC1c1nc2cc(F)ccc2[nH]1", "stereo": "configuration not stated", "percent effect": -1.414}
{"smiles": "NC(=O)C1CCN(C(=O)NCCNc2ccccn2)CC1", "percent effect": -22.48}
{"smiles": "Cc1nc(C)n(C2CCCN(C(=O)CCc3ccncc3)C2)n1", "stereo": "configuration not stated", "percent effect": -0.3348}
{"smiles": "COc1cc(N2C[C@@H]3COC[C@]3(COCc3cccc(C)n3)C2)ncn1", "percent effect": 9.078}
{"smiles": "O=C(CCn1ncc2c(Cl)cccc21)NCCCn1cccn1", "percent effect": -2.933}
{"smiles": "CN(C)S(=O)(=O)c1ccc(-c2nc(C#N)c(NC(C)(C)C)o2)o1", "percent effect": -51.8}
{"smiles": "c1cc(CNCc2cccc3c2OCCO3)cc(Cn2cncn2)c1", "percent effect": 5.121}
{"smiles": "CC(O)CCn1ccc2[nH]c(=O)c(C#N)cc2c1=O", "stereo": "configuration not stated", "percent effect": -386}
{"smiles": "CC[C@H]1CN(C(=O)CCn2c(C)cccc2=O)CC[C@@]1(C)O", "percent effect": -1.564}
{"smiles": "O=C(NCCc1ccccn1)N1CCSC2(CCCCC2)C1", "percent effect": -7.309}
{"smiles": "c1cnnc(N2CCCC(NCc3ccc(-n4cncn4)cc3)C2)c1", "stereo": "configuration not stated", "percent effect": -4.635}
{"smiles": "c1ccc(CN2CCc3ncnc(-c4ccncc4)c3CC2)nc1", "percent effect": 8.223}
{"smiles": "CS(=O)(=O)C1CCN(S(=O)(=O)c2ccc(F)c(F)c2)CC1", "percent effect": -5.046}
{"smiles": "Cc1cc(C)cc(OCC(=O)N2CCC2)c1", "percent effect": 6.596}
{"smiles": "COc1cc(CCC(=O)NC(C)C)ccc1OCC(F)(F)F", "percent effect": -20.29}
{"smiles": "CC(=O)NCC(=O)N1CCOC2(CCCN(c3cccnc3)C2)C1", "stereo": "configuration not stated", "percent effect": 9.285}
{"smiles": "CN1CC2(CCNCC2)CC1C(=O)NCCCNc1cccnc1", "stereo": "configuration not stated", "percent effect": -8.02}
{"smiles": "CCC(Nc1nc(CCN)nc2ccccc12)c1cc(C)ccn1", "stereo": "configuration not stated", "percent effect": -12.09}
{"smiles": "Cc1cccc(C(=O)N2CCC(c3n[nH]c(C4CC4)n3)CC2)c1", "percent effect": 5.848}

The first 4 entries again:

SMILES,percent effect
CCOCC1CN(Cc2ccoc2)Cc2nn(C)cc21 (configuration not stated),-5.356
CCn1cc(NC(=O)C2CCN(Cc3nc(C)c(C)o3)CC2)cn1,-4.27
Cc1ncsc1C(=O)N1CCCC(c2cc(C(F)F)n3ncnc3n2)C1 (configuration not stated),-6.029
CN(CC1(CO)CCOCC1)[C@@H]1c2ccccc2C2(CCNCC2)[C@H]1O,-15.54